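A cell-based luciferase reporter for ATXN2 expression, read by light output at 24 h, with a viability multiplex. Compounds were tested as a dilution series from about 0.0037 to 57 µM. The number is the fitted half-maximal inhibitory concentration (AC50); a lower value means a more potent inhibitor. Calls come from curve class and activity score: actives score 40–100, while inconclusive compounds (weak, partial, poorly fitted or single-point curves) score 1–39.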

Values are in µM. Every entry below has the call inconclusive. These entries are mostly ones the record files as inconclusive; other results of the assay are not listed here. Potencies fitted to partial, single-point or poorly fitting curves are rough. Some entries filed as inconclusive have a full curve. Activity scores are not listed here.

compound,Potency (µM),curve
C[C@@H]1CC=C[C@@H]2[C@H]1C(=O)N(Cc1ccccc1)[C@H]2c1ccccc1Br,19.95,"inhibitor, single point"
N=c1n(CCCOc2ccccc2Cl)c2ccccc2n1CC(N)=O,35.48,"inhibitor, single point"
COc1ccc(C)cc1Nc1nc(C)nc2sc(C)cc12,4.467,"inhibitor, partial curve, poor fit"
CCN1CCN(c2ccc(Cl)cc2NC(=O)c2ccc(-n3nc(C)cc3C)cc2)CC1,15.85,"inhibitor, partial curve, poor fit"
COc1cccc2c1C(=O)C=C(C)C2=O,28.18,"inhibitor, partial curve, poor fit"
Nc1cccc2c1C(=O)N(C(=O)/C=C/c1cccc(Br)c1)C2=O,28.18,"inhibitor, single point"
O=c1c2c(nc3c(-c4cccc(Br)c4)c[nH]n13)CCCC2,3.162,"inhibitor, full curve, poor fit"
CCc1ccc(CNC(=O)c2cc3c(C)nc4ccccc4c3o2)cc1,17.78,"inhibitor, partial curve, poor fit"
O=C(Nc1ccc(Cc2ccncc2)cc1)c1ccc(S(=O)(=O)N2CCCC2)cc1,15.85,"inhibitor, partial curve, poor fit"
Cc1cccc2sc(N(CCCN(C)C)C(=O)c3ccco3)nc12,17.78,"inhibitor, partial curve, poor fit"
Cc1cc(C)n2nc(C(=O)N/N=C/c3c4ccccc4cc4ccccc34)nc2n1,39.81,"inhibitor, single point"
CN1CCN(C2Cc3cc(Cl)ccc3Sc3cc(F)ccc32)CC1 (centres unmarked),4.467,"inhibitor, single point"
CC1CCCN(c2ncnc3c2cnn3-c2ccc(Cl)cc2)C1 (centres unmarked),0.3548,"inhibitor, partial curve, poor fit"
CCN(CC)c1ccc2c(Cl)c(Br)c(=O)oc2c1,5.623,"inhibitor, single point"
CN1CCC[C@H]1CCNc1ccc2c(=O)c3ccccc3n(C)c2c1,39.81,"inhibitor, single point"
O=C(c1ccc(-c2nnc(Nc3cccc(Cl)c3)c3ccccc23)cc1)N1C[C@H]2C[C@H](C1)c1cccc(=O)n1C2,3.162,"inhibitor, single point"
CC(C)Nc1nc(NCCOc2ccccc2)c2sccc2n1,31.62,"inhibitor, single point"
Cn1c(CO)c(-c2ccccc2)c2cc([N+](=O)[O-])ccc21,3.162,"inhibitor, partial curve"
CCCCNCCCOc1cccc(Cl)c1Cl,17.78,"inhibitor, partial curve"
COc1ccc(/C=C/C(=O)c2ccc3c4c(cccc24)CC3)cc1OC,17.78,"inhibitor, partial curve, poor fit"
COc1ccccc1NC(=O)CSc1n[nH]c(-c2ccccn2)n1,28.18,"inhibitor, single point"
CN(CCc1ccccc1)c1cc2c(c3c1ccn3C)C1CCC2O1 (centres unmarked),17.78,"inhibitor, partial curve, poor fit"
Fc1ccc(Nc2nnc(C(F)(F)F)s2)cc1Cl,25.12,"inhibitor, partial curve, poor fit"
O=C(Nc1ccc([N+](=O)[O-])cc1)Nc1ccc(Cl)cc1F,3.162,"inhibitor, single point"
CC1CCCN(S(=O)(=O)c2ccc(C(=O)Nc3nnc(-c4ccccc4Cl)o3)cc2)C1 (centres unmarked),3.162,"inhibitor, partial curve"
COc1cccc(CC(=O)Nc2nc(-c3ccc(OC)c(OC)c3)cs2)c1,28.18,"inhibitor, partial curve, poor fit"
Cc1ccc(-c2csc(N3CCN(c4cc5c(cc4Cl)nc(-c4ccncc4)n5CCOCCO)CC3)n2)cc1,28.18,"inhibitor, single point"
Cc1ccc2cc(C#N)c(N3CCN(C(=O)c4ccccc4)CC3)nc2c1,39.81,"inhibitor, single point"
CCOc1ccccc1NC(=O)N1CCC(c2nc3ccccc3[nH]2)CC1,3.981,"inhibitor, partial curve, poor fit"
O=c1nccc(N/N=C/c2ccccc2O)[nH]1,31.62,"inhibitor, single point"
Cc1ccc(S(=O)(=O)Nc2ccc(O)c3cccnc23)cc1,28.18,"inhibitor, single point"
COCCCn1c(-c2ccc(S(=O)(=O)N3CCOCC3)cc2)csc1=Nc1ccccc1,2.818,"inhibitor, partial curve"
OC(c1ccccn1)(c1ccccn1)c1ccccn1,3.548,"inhibitor, partial curve"
OC(c1cc(-c2cccc(Cl)c2)nc2ccccc12)C1CCCCN1 (centres unmarked),14.13,"inhibitor, partial curve, poor fit"
COCCCNC1=C(Cl)C(=O)c2ccccc2C1=O,19.95,"inhibitor, partial curve, poor fit"
CCOc1ccc(C(CN2CCOCC2)C(C)=O)cc1OC (centres unmarked),31.62,"inhibitor, single point"
N#C/C(=N\Nc1cccc([N+](=O)[O-])c1)C(=O)c1ccc(Br)cc1,0.7079,"inhibitor, full curve"
CC(C)CCNC(=O)c1c(N)n(Cc2ccc3c(c2)OCO3)c2nc3ccccc3nc12,31.62,"inhibitor, single point"

Some entries from above, unchanged:

| compound | Potency (µM) | curve |
|---|---|---|
| `COc1ccc(/C=C/C(=O)c2ccc3c4c(cccc24)CC3)cc1OC` | 17.78 | inhibitor, partial curve, poor fit |
| `O=C(c1ccc(-c2nnc(Nc3cccc(Cl)c3)c3ccccc23)cc1)N1C[C@H]2C[C@H](C1)c1cccc(=O)n1C2` | 3.162 | inhibitor, single point |
| `CCN1CCN(c2ccc(Cl)cc2NC(=O)c2ccc(-n3nc(C)cc3C)cc2)CC1` | 15.85 | inhibitor, partial curve, poor fit |
| `CCOc1ccc(C(CN2CCOCC2)C(C)=O)cc1OC` (centres unmarked) | 31.62 | inhibitor, single point |
| `CN1CCC[C@H]1CCNc1ccc2c(=O)c3ccccc3n(C)c2c1` | 39.81 | inhibitor, single point |

Source: PubChem BioAssay AID1745848 (NCATS, 2022).